In article PMC9477845 one finds binding data, which are given here for 1 substance.

The chains behind the UniProt entries cited, without tags or fusion partners.
UniProt Q16877: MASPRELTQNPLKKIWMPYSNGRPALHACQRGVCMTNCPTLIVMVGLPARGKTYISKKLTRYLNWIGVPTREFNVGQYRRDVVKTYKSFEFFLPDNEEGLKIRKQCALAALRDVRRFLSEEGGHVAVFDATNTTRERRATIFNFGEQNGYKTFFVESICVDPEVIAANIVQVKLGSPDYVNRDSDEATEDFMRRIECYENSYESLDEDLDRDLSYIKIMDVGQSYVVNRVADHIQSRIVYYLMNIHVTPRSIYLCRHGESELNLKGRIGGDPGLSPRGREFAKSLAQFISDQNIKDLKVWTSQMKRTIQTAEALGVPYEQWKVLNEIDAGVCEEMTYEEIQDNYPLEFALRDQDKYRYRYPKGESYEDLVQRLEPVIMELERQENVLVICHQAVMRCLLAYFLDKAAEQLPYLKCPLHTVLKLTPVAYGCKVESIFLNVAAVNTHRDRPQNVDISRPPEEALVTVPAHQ
UniProt Q9P1W9: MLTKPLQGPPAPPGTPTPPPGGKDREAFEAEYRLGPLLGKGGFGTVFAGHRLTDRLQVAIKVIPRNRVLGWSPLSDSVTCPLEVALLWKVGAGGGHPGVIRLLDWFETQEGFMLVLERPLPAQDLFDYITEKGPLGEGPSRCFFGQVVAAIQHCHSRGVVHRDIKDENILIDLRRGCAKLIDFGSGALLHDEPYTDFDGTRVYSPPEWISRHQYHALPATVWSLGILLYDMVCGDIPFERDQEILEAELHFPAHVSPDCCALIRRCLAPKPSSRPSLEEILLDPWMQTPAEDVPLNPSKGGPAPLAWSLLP

Results are given in words; binding and its absence hold for the method and conditions named. Binding seen in cells or lysates may run through a third protein. A yes stands for co-enrichment or nearness to the bait. Other partners may have been found.

The assay concerns the target PFKFB4 (6-phosphofructose-2-kinase/fructose-2,6-bisphosphatase 4), endogenous (human (endogenous in ESC endometriosis stromal cells)) (UniProt Q16877). The experiment in a line: affinity purification with mass spectrometry; PFKFB4 immunoprecipitated from EM cells, precipitate analysed by mass spectrometry.

Turning to “PIM2 (proviral insertion in murine lymphomas 2), endogenous (from UniProt Q9P1W9 1-311)”, the binding result is “binds”.
